Test results reported in patent US9522164B2, “Disulfide chemotherapeutic agents and methods of use thereof” (Lankenau Institute for Medical Research, priority 2007, dated 2016).

How the values were obtained:
[1] = tested on: human colon cancer cells HCT116; assay: Detoxification/bioreduction of HEDS to mercaptoethanol (DTNB); assay type: cell-based
[2] = tested on: human colon cancer cells HT29; assay: as above; assay type: cell-based; conditions: HEDS 3 hours

OCCSSCCO [HEDS, hydroxyethyldisulfide]
mercaptoethanol (ME) generated from HEDS ([1]; HCT116, cells incubated with glucose, HEDS 3 hours): up to 3000 μM | efficiency of converting HEDS into ME relative to cells with glucose ([1]; HCT116, cells without glucose (deprived 4 hours), HEDS 3 hours): six times less efficient | detoxification of HEDS ([1]; HCT116, low concentrations (1-3 mM) of glucose compared to physiological 5 mM): not being able to detoxify HEDS effectively | mercaptoethanol (ME) generated from HEDS ([2]; HT29, cells incubated with glucose): up to 3000 μM | efficiency of converting HEDS into ME relative to cells with glucose ([2]; HT29, cells without glucose (deprived 4 hours)): six times less efficient
